Test results: article PMC10298087
Residue numbers refer to the chain shown, from its start. These are yes or no findings as the source states them, for the method shown. Binding can be weak; no strength is given. Where a sequence is shown, tags or fusion partners need not be part of it. For part of these data: In cells and extracts the contact can be indirect.

Legend:
[1] = target: T1, FLAG-tagged mouse Trim28-K305Q (mouse) (UniProt Q62318); experiment: native gel or EMSA; nuclear extracts of HEK293T cells transfected with Gal4^DBD-KRAB and FLAG-Trim28; 32P-labelled Gal4-binding elements; supershift with anti-Gal4 or anti-FLAG; room temperature; 5% native gel
T1 sequence: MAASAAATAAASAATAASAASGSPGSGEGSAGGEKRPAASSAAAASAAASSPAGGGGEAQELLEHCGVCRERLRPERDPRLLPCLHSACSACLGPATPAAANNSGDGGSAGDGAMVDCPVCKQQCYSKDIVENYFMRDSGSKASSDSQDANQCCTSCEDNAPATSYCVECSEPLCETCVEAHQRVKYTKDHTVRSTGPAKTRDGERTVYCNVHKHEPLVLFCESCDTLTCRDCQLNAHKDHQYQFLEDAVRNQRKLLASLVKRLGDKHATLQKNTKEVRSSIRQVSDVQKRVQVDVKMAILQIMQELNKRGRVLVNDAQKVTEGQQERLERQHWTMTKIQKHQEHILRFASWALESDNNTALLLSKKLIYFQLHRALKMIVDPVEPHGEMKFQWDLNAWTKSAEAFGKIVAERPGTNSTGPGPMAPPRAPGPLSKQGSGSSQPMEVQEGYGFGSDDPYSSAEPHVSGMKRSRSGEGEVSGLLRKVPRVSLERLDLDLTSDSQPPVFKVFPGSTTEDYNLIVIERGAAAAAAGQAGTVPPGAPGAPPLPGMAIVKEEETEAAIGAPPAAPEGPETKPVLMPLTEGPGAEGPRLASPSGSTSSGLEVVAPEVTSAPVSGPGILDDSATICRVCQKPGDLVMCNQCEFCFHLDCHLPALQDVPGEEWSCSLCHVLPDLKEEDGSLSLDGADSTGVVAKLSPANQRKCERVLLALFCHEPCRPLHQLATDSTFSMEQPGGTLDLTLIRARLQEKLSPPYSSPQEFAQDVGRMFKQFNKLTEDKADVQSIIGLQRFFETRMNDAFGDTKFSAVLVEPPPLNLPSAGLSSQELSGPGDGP

[2] = target: T2, FLAG-tagged mouse Trim28-K255Q (mouse) (UniProt Q62318); experiment: co-IP; FLAG-tagged mouse Trim28 (WT or mutants) and Gal4^DBD-KRAB in TRIM28-knockout K562 cells; IP with anti-FLAG, Western blot with anti-FLAG and anti-Gal4; whole-cell extract buffer with 300 mM NaCl, 0.1% Triton X-100, 4 °C
T2 sequence: T1 sequence with K255Q, Q305K

[3] = target: T3, FLAG-tagged mouse Trim28-K267R (mouse) (UniProt Q62318); experiment: as above
T3 sequence: T1 sequence with K267R, Q305K

Measured: binding

Gal4 DNA-binding domain (Gal4^DBD)-KRAB (domain or fragment)
binds: all assays above
